Source: PMC10681723
No constants are given. Whether binding was seen depends on the method and setting. Binding seen in cells or lysates may run through a third protein. Here binding means that the protein was enriched with, or labelled near, the bait; the list need not be complete.

Sequences of proteins named here, by UniProt entry; tags and fusion partners are left off.
UniProt P32558: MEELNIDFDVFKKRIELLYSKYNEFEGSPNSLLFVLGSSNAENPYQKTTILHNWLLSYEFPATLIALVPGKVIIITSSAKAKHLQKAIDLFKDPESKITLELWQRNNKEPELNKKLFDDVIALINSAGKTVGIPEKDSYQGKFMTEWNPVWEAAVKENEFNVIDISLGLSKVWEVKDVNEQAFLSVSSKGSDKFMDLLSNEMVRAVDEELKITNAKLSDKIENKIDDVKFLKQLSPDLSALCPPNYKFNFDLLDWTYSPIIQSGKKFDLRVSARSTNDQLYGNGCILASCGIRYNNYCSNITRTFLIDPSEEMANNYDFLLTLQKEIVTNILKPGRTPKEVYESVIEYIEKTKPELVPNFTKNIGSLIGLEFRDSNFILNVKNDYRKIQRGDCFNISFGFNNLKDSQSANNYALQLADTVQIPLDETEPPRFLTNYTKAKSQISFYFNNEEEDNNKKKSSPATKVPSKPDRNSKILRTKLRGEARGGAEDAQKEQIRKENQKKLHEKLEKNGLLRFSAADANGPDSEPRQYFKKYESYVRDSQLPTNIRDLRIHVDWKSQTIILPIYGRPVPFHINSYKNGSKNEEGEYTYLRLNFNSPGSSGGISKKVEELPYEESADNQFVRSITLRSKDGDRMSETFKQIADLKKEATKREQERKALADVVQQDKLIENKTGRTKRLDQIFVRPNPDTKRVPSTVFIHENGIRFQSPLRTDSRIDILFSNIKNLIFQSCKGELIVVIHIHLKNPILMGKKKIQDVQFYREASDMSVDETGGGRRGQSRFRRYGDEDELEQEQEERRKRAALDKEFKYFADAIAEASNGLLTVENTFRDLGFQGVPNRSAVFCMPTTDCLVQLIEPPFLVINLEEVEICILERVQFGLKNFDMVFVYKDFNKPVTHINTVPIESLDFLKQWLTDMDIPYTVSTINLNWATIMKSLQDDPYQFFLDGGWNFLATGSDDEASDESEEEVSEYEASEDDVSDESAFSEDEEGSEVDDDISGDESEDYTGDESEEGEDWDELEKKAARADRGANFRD

B1: Mcm7 (protein, UniProt P38132 1-845)
chain: MSAALPSIQLPVDYNNLFNEITDFLVTFKQDTLSSDATRNENEDENLDAENIEQHLLEKGPKYMAMLQKVANRELNSVIIDLDDILQYQNEKFLQGTQADDLVSAIQQNANHFTELFCRAIDNNMPLPTKEIDYKDDVLDVILNQRRLRNERMLSDRTNEIRSENLMDTTMDPPSSMNDALREVVEDETELFPPNLTRRYFLYFKPLSQNCARRYRKKAISSKPLSVRQIKGDFLGQLITVRGIITRVSDVKPAVEVIAYTCDQCGYEVFQEVNSRTFTPLSECTSEECSQNQTKGQLFMSTRASKFSAFQECKIQELSQQVPVGHIPRSLNIHVNGTLVRSLSPGDIVDVTGIFLPAPYTGFKALKAGLLTETYLEAQFVRQHKKKFASFSLTSDVEERVMELITSGDVYNRLAKSIAPEIYGNLDVKKALLLLLVGGVDKRVGDGMKIRGDINVCLMGDPGVAKSQLLKAICKISPRGVYTTGKGSSGVGLTAAVMKDPVTDEMILEGGALVLADNGICCIDEFDKMDESDRTAIHEVMEQQTISISKAGINTTLNARTSILAAANPLYGRYNPRLSPLDNINLPAALLSRFDILFLMLDIPSRDDDEKLAEHVTYVHMHNKQPDLDFTPVEPSKMREYIAYAKTKRPVMSEAVNDYVVQAYIRLRQDSKREMDSKFSFGQATPRTLLGIIRLSQALAKLRLADMVDIDDVEEALRLVRVSKESLYQETNKSKEDESPTTKIFTIIKKMLQETGKNTLSYENIVKTVRLRGFTMLQLSNCIQEYSYLNVWHLINEGNTLKFVDDGTMDTDQEDSLVSTPKLAPQTTASANVSAQDSDIDLQDA
B2: Mrc1 (protein, UniProt P25588 1-1096)
chain: MDDALHALSSLTAKKRTTTYKKVAVPILDENDNTNGNGPNDIDNPPELTGNGFLFANATLNRVKNRLEGKKAPEQNHNNGKDRSENSLPTQLISNLYDGGEELEKSEVKDNSYSEKNVSSSFTQTQRIPVSIQQDKVFNVPIHSVNDGKPTQLIKEDGLVNETSQALKTPLTTGRPGATQRIDSSGATSQTQPIKSIEPQSQIITTSSNHSNALSPKIPIIPTELIGTSPLFQSIQNRGPDTQMDVPPQTAHDEDKTQAIGIPQATHQEQKTQIDTVAQTLQDEVPHTLKIREIQSELASEDSKREKARNVEYKKPQKPIPTKKFFSKESFLADFDDSSSNEDDDIKLENAHPKPVQNDDELHENKSVELNLTDETRINEKRVPLLSSYANNLKREIDSSKCITLDLDSDSDEYGDDDMDSIKLSKDESVLPISQLSKATILNLKARLSKQNQKLSQRPNKSKDPKVDHNVLLNTLRKASRKQILDHQKEVIETKGLKLEDMAKEKEIVENLLEQEILRNKRIRQKEKRREKLEENDFQLNAHDSGSDSGSESSGFALSGNEIADYESSGSENDNRRESDSEKEDDEIILKQKKSHHVKHIINESDSDTEVEAKPKEKADESLPKRIAINLGHYGDNIGEDTDKFQETNVLDTQNIEEVMAERNTIENEVKDDVYVNEEADEAIRRQLIDKEKLQLKQKEKEHEAKIKELKKRGVTNFFEMEAEESEDEWHGIGGADGEGSDDYDSDLEKMIDDYSKNNFNPHEIREMLAAENKEMDIKMINKILYDIKNGGFRNKRAKNSLELELSDDDEDDVLQQYRLKRRELMRKRRLEIGDDAKLVKNPKSSAFFESMVEDIIEYKNPFGAEEEYNLDITSTATDLDTQDNSINVGDNTGNNEQKPVDQKNKKVIISEDFVQKSLSFLKSNNYEDFETDKELSRIQHGNDEAIEDLYTLKQNSSIKSFTNSQTDSTTSKTVNTIIDLEKRPEDEDEVENGDTSLVGVFKHPSIIKSFASRTDINDKFKEGNKTVKILKSYKTVGSSKASITYMGKTRKLIAPKRKTEGSHRYHHDHHNKKMKMKTKTKSNKLFESGQDSFDN
B3: Tof1 (protein, UniProt P53840 1-1238)
chain: MSADLQQGTTNAADFSLTVLRARIALLATAIGGPDYTSQIDPPPYKLGDDCLACLKDLKRWFKLVDDQQKRWDVAMAVAEYRILTDDLLPILIDWENKCSLAAKLAKNNPDHEEFRNKAYYDKIALNCLQLLVLMTWPLIVTEQSSSNQITLYGELKKHQLVYKKTILSMESGKVLRAAIRLALDVIKIDRLSRTPRDNMVLKLVLNFFRNVIAIEPGEFTINTKKSMPKKGITSIDTLPPNVSMDDISLNTVISSFHKNKVFGFLLTLTSSLSKEFDQDFINIPLLEIMFYFTKDVNQELLFPRQFETGTHSKVVNKNESSSANNIVTSAGFELSKLLQKEHQMRKNVIKHTSARHSRFGGLLSIQTPDKTRLTVSGSQALVDEKIALQKLDDSKKWNKRIIKKHQSVAAEGLPNSLLNSQTGKAIFFTESNGKHFKEFINNFIDSGFNILLHSVTNYFTTEQDRMVTLEQVEYLLFFAWFVKYQLLRSKIDNSADIKQVSEALKEVTFILVSSLLRSAYDLKNWTVTHAGMIAFNELLNLVSRTKAAQEEDSTDIEFIVSRLFSDERIQLLSNLPKIGSKYSLQFMKSCIELTHSVLKVLEQYSDDKTLVIEGKSRRQKKFNISEGDITKLIEEENVDRDEALDILTSSLRSIEVNFQKVQANYMTEPVIETYINFLERFRELEDDSIKKVFSFFHRVFVQAKEQALLFRFDLIILLREMLSPDGLDRMSRSRKYVSQFSDYFLARLKKRLKKSPAWFVGLLFPPLHNSEVGFYQRYGEYNVLNNESMYAAPASQFKPIPDEEALPPSILLDMKYGVLVSTLLDDGKTELLDQLLKHITHTLDIFKSWLTVNVNAGKETVNPPNEYFTLTGVLNNDPIFKDKDYRALLLLIGYSIPRKINEPCFLPGTVEVSDLTVSCELVKKYLSTPFETPNGLPSSSYLLRVRSEKDSFSHNEQDGWEGDDDYDYNDPYIVPDDQILSKSDAAYFKDLDNNASDKLKGTKFSKGIARSKKKDKRKRRKGEAKTNLPMFGDQDDERPQTVRERHGVFSKEFISDSEDDEDLMNPIFFENETYMRWLLDKNNGQLTEDRYIQFAKFAAERMNNGGVVTGDYTSLFGGSIPSIESIRATESSSFAPDKSLISLASHVASEMSIFDVNNNNNNQLSDDDVNSESRNSLGSSQPSNSQNMFQSEVYSRKESTKRSLEASAADESDEDEEAIRLFGKKSRVVLSQGDSDD
B4: Csm3 (protein, UniProt Q04659 1-317)
chain: MDQDFDSLLLGFNDSDSVQKDPTVPNGLDGSVVDPTIADPTAITARKRRPQVKLTAEKLLSDKGLPYVLKNAHKRIRISSKKNSYDNLSNIIQFYQLWAHELFPKAKFKDFMKICQTVGKTDPVLREYRVSLFRDEMGMSFDVGTRETGQDLERQSPMVEEHVTSAEERPIVADSFAQDKRNVNNVDYDNDEDDDIYHLSYRNRRGRVLDERGNNETVLNNVVPPKEDLDALLKTFRVQGPVGLEENEKKLLLGWLDAHRKMEKGSMTEEDVQLIQSLEEWEMNDIEGQHTHYDLLPGGDEFGVDQDELDAMKEMGF
B5: Set3 (protein, UniProt P36124 1-751)
chain: MSVPNSKEQSLLDDASTLLLFSKGKKRAEEASKIGSKTDTIEHDESHEREKKGAIEMAAAALATASTVSLPLKKATEQSAAEAATSTAAKEETENQPQKQPQWPVPDSYIVDPDAGIITCICDLNDDDGFTIQCDHCNRWQHAICYGIKDIGMAPDDYLCNSCDPREVDINLARKIQQERINVKTVEPSSSNNSASNKNNGRDRASSTTISDVGDSFSTDQDNTNHRDKRRKRNPSNNSIDSKNESASVNSSDGLTSMPKKKEHFLSAKDAYGAIYLPLKDNVFKSDLIEPFLNKHMDDNWVIQYPHKTFKSVSIEVKPYADIAYSRTYPGFTKLGVYLKKDCIKGDFIQEILGELDFYKNYLTDPRNHYRIWGTAKRRVIFHSHWPIYIDARLSGNSTRYLRRSCQPNVELVTIKLQDTDNRNDKSSGRKSSRIKFVLRALRDISEDEELYIKWQWDSKHPILKLIKGMTIDSLDDLERYGLINSVETILSNGECGCGNNSKDCYLLKVKRYAQSLYKSVKSRGKMNNRYKLNEILNQYNCKKRREPPILHRLEEKAQNTIERAPILLNNFYRQKFLNRNNGPKIPQKNTIDSTNNPDDIAKPFKFALFAQHSSNISVPKKNETSEKPLIITKSTDYDESHITNIEELPIPVLLPINKTSRQTANDVEESQSKNEHKLSRTPSLSNFNKELSKEAQHSQAKTKEIMTEASVNSRRESTPESIMHLSDFSSSQLHSKKKLSFADYRKKLLK
B6: Sif2 (protein, UniProt P38262 1-535)
chain: MSITSEELNYLIWRYCQEMGHEVSALALQDETRVLEFDEKYKEHIPLGTLVNLVQRGILYTESELMVDSKGDISALNEHHLSEDFNLVQALQIDKEKFPEISSEGRFTLETNSESNKAGEDGASTVERETQEDDTNSIDSSDDLDGFVKILKEIVKLDNIVSSTWNPLDESILAYGEKNSVARLARIVETDQEGKKYWKLTIIAELRHPFALSASSGKTTNQVTCLAWSHDGNSIVTGVENGELRLWNKTGALLNVLNFHRAPIVSVKWNKDGTHIISMDVENVTILWNVISGTVMQHFELKETGGSSINAENHSGDGSLGVDVEWVDDDKFVIPGPKGAIFVYQITEKTPTGKLIGHHGPISVLEFNDTNKLLLSASDDGTLRIWHGGNGNSQNCFYGHSQSIVSASWVGDDKVISCSMDGSVRLWSLKQNTLLALSIVDGVPIFAGRISQDGQKYAVAFMDGQVNVYDLKKLNSKSRSLYGNRDGILNPLPIPLYASYQSSQDNDYIFDLSWNCAGNKISVAYSLQEGSVVAI
B7: Hos4 (protein, UniProt P40480 1-1083)
chain: MNETTTKQPLKKRSLSSYLSNVSTRREELEKISKQETSEEEDTAGKHEQRETLSEEVSDKFPENVASFRSQTTSVHQATQNNLNAKESEDLAHKNDASSHEGEVNGDSRPDDVPETNEKISQAIRAKISSSSSSPNVRNVDIQNHQPFSRDQLRAMLKEPKRKTVDDFIEEEGLGAVEEEDLSDEVLEKNTTEPENVEKDIEYSDSDKDTDDVGSDDPTAPNSPIKLGRRKLVRGDQLDATTSSMFNNESDSELSDIDDSKNIALSSSLFRGGSSPVKETNNNLSNMNSSPAQNPKRGSVSRSNDSNKSSHIAVSKRPKQKKGIYRDSGGRTRLQIACDKGKYDVVKKMIEEGGYDINDQDNAGNTALHEAALQGHIEIVELLIENGADVNIKSIEMFGDTPLIDASANGHLDVVKYLLKNGADPTIRNAKGLTAFESVDDESEFDDEEDQKILREIKKRLSIAAKKWTNRAGIHNDKSKNGNNAHTIDQPPFDNTTKAKNEKAADSPSMASNIDEKAPEEEFYWTDVTSRAGKEKLFKASKEGHLPYVGTYVENGGKIDLRSFFESVKCGHEDITSIFLAFGFPVNQTSRDNKTSALMVAVGRGHLGTVKLLLEAGADPTKRDKKGRTALYYAKNSIMGITNSEEIQLIENAINNYLKKHSEDNNDDDDDDDNNNETYKHEKKREKTQSPILASRRSATPRIEDEEDDTRMLNLADDDFNNDRDVKESTTSDSRKRLDDNENVGTQYSLDWKKRKTNALQDEEKLKSISPLSMEPHSPKKAKSVEISKIHEETAAEREARLKEEEEYRKKRLEKKRKKEQELLQKLAEDEKKRIEEQEKQKVLEMERLEKATLEKARKMEREKEMEEISYRRAVRDLYPLGLKIINFNDKLDYKRFLPLYYFVDEKNDKFVLDLQVMILLKDIDLLSKDNQPTSEKIPVDPSHLTPLWNMLKFIFLYGGSYDDKKNNMENKRYVVNFDGVDLDTKIGYELLEYKKFVSLPMAWIKWDNVVIENHAKRKEIEGNMIQISINEFARWRNDKLNKAQQPTRKQRSLKIPRELPVKFQHRMSISSVLQQTSKEPFW

biological target: TAP-tagged Spt16 (Spt16-TAP), wild type (budding yeast (S. cerevisiae)) (UniProt P32558); experiment: affinity purification with mass spectrometry; tandem affinity purification of wild-type Spt16 or Spt16-ΔN from yeast cells, SDS-PAGE, label-free quantitative mass spectrometry, n = 3

binding, binds:
B1, B2, B3, B4, B5, B6, B7
